Measurements reported in PubChem BioAssay AID1259254 (NCATS, 2017).

- Aim: 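Finding genes that stop cells copying their DNA twice in one cycle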 (primary screen)
- Cell system: human HCT116 colorectal cancer cells
- Reagents: single siRNA against human genes
- Time to read-out: 3 days
- Measured: 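Imaged Hoechst DNA stain sorts each cell into a cycle phase by DNA amount; per plate, G2 fraction set to 0% for non-targeting and 100% for GMNN siRNA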
- Reading the numbers: G2 robust z-score and G2 cells, % of GMNN control: higher = more G2 cells, more excess DNA replication
- Rule for the call: 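An siRNA counts as active if its G2 robust z-score lies at least 5 MADs above the screen median; here such calls match roughly 38% of GMNN control or more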
In all, the deposit lists about 59,000 reagents; this is a part drawn at random. About 1,550 of them (2.6%) were called active. 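G2 share is only a proxy for re-replication; each gene was hit by three separate siRNAs, and active genes were retested.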 Reagents against one gene are numbered here. Further read-outs or replicates are left out here. The record does not give: the amount of reagent.

target	reagent	G2 robust z-score	G2 cells, % of GMNN control	call
HCG22 (HLA complex group 22)	1	-0.466	-0.315	inactive
HCG22 (HLA complex group 22)	2	1.3	12.1	inactive
HCG22 (HLA complex group 22)	3	0.466	6.25	inactive
FAM53A (family with sequence similarity 53 member A)	1	-0.304	0.832	inactive
FAM53A (family with sequence similarity 53 member A)	2	-0.0964	2.29	inactive
FAM53A (family with sequence similarity 53 member A)	3	0.991	9.94	inactive
HOXA9 (homeobox A9)	1	-1.25	-5.82	inactive
HOXA9 (homeobox A9)	2	1.04	10.3	inactive
HOXA9 (homeobox A9)	3	0.00974	3.04	inactive
FUT7 (fucosyltransferase 7)	1	-0.13	2.05	inactive
FUT7 (fucosyltransferase 7)	2	-1.03	-4.3	inactive
FUT7 (fucosyltransferase 7)	3	3.33	26.4	inactive
RTN4RL1 (reticulon 4 receptor like 1)	1	-0.499	-0.544	inactive
RTN4RL1 (reticulon 4 receptor like 1)	2	-0.986	-3.97	inactive
RTN4RL1 (reticulon 4 receptor like 1)	3	3.3	26.2	inactive
RILP (Rab interacting lysosomal protein)	1	-0.458	-0.256	inactive
RILP (Rab interacting lysosomal protein)	2	-0.418	0.0235	inactive
RILP (Rab interacting lysosomal protein)	3	-0.719	-2.09	inactive
TMEM255B (transmembrane protein 255B)	1	2.31	19.2	inactive
TMEM255B (transmembrane protein 255B)	2	2.18	18.3	inactive
TMEM255B (transmembrane protein 255B)	3	0.559	6.9	inactive
OLFM4 (olfactomedin 4)	1	-1.18	-5.34	inactive
OLFM4 (olfactomedin 4)	2	-0.493	-0.503	inactive
OLFM4 (olfactomedin 4)	3	-1.2	-5.45	inactive
MPO (myeloperoxidase)	1	-0.307	0.81	inactive
MPO (myeloperoxidase)	2	-0.715	-2.07	inactive
MPO (myeloperoxidase)	3	1.93	16.5	inactive
LOC646179 (retired record)	1	2.28	19	inactive
LOC646179 (retired record)	2	0.108	3.73	inactive
LOC646179 (retired record)	3	-0.347	0.529	inactive
TAS2R38 (taste 2 receptor member 38)	1	0.135	3.92	inactive
TAS2R38 (taste 2 receptor member 38)	2	1.43	13.1	inactive
TAS2R38 (taste 2 receptor member 38)	3	-0.65	-1.61	inactive
SLC5A8	1	0.503	6.51	inactive
SLC5A8	2	0.612	7.28	inactive
SLC5A8	3	2.66	21.7	inactive
OSTCP1 (oligosaccharyltransferase complex subunit pseudogene 1)	1	2.46	20.3	inactive
OSTCP1 (oligosaccharyltransferase complex subunit pseudogene 1)	2	-0.948	-3.7	inactive
OSTCP1 (oligosaccharyltransferase complex subunit pseudogene 1)	3	-0.497	-0.528	inactive
ZDHHC15 (zDHHC palmitoyltransferase 15)	1	-0.993	-4.02	inactive
ZDHHC15 (zDHHC palmitoyltransferase 15)	2	1.38	12.6	inactive
ZDHHC15 (zDHHC palmitoyltransferase 15)	3	-0.376	0.323	inactive
ATP10A (ATPase phospholipid transporting 10A (putative))	1	-0.264	1.11	inactive
ATP10A (ATPase phospholipid transporting 10A (putative))	2	-0.439	-0.124	inactive
ATP10A (ATPase phospholipid transporting 10A (putative))	3	1.26	11.8	inactive
CD300LF (CD300 molecule like family member f)	1	-1.17	-5.24	inactive
CD300LF (CD300 molecule like family member f)	2	-0.442	-0.144	inactive
CD300LF (CD300 molecule like family member f)	3	-1.33	-6.41	inactive
OR51A4 (olfactory receptor family 51 subfamily A member 4)	1	-0.263	1.12	inactive
OR51A4 (olfactory receptor family 51 subfamily A member 4)	2	5.41	41	active
OR51A4 (olfactory receptor family 51 subfamily A member 4)	3	0.889	9.22	inactive
GFI1B (growth factor independent 1B transcriptional repressor)	1	-0.98	-3.93	inactive
GFI1B (growth factor independent 1B transcriptional repressor)	2	-0.252	1.2	inactive
GFI1B (growth factor independent 1B transcriptional repressor)	3	-0.12	2.12	inactive
DENND2D (DENN domain containing 2D)	1	0.413	5.87	inactive
DENND2D (DENN domain containing 2D)	2	3.68	28.8	inactive
DENND2D (DENN domain containing 2D)	3	3.02	24.2	inactive
CASQ1 (calsequestrin 1)	1	0.411	5.86	inactive
CASQ1 (calsequestrin 1)	2	0.467	6.25	inactive
CASQ1 (calsequestrin 1)	3	-0.19	1.63	inactive
OR10W1 (olfactory receptor family 10 subfamily W member 1)	1	-0.855	-3.05	inactive
OR10W1 (olfactory receptor family 10 subfamily W member 1)	2	4.89	37.4	inactive
OR10W1 (olfactory receptor family 10 subfamily W member 1)	3	-0.595	-1.22	inactive
TMEM198 (transmembrane protein 198)	1	-0.452	-0.214	inactive
TMEM198 (transmembrane protein 198)	2	0.436	6.04	inactive
TMEM198 (transmembrane protein 198)	3	0.538	6.75	inactive
HCN3	1	0.606	7.23	inactive
HCN3	2	-1.05	-4.39	inactive
HCN3	3	0.344	5.39	inactive

6 entries from above, sorted by “G2 cells, % of GMNN control”, low to high.
target	reagent	G2 robust z-score	G2 cells, % of GMNN control	call
LOC646179 (retired record)	3	-0.347	0.529	inactive
LOC646179 (retired record)	2	0.108	3.73	inactive
TAS2R38 (taste 2 receptor member 38)	1	0.135	3.92	inactive
TAS2R38 (taste 2 receptor member 38)	2	1.43	13.1	inactive
MPO (myeloperoxidase)	3	1.93	16.5	inactive
LOC646179 (retired record)	1	2.28	19	inactive
